Substitutions are numbered along the chain they refer to. Results are given in words; binding and its absence hold for the method and conditions named. Some binding calls cover weakened binding; strength is not graded here.
Tests used:
recombinant human Ang-2 [1] = target: T1, recombinant human Ang-2 (human, UniProt O15123 19-496, limits assumed); experiment: ELISA, human Ang-2 coated
T1 construct: also called hAng-2; human angiopoietin-2
T1 sequence (looked up): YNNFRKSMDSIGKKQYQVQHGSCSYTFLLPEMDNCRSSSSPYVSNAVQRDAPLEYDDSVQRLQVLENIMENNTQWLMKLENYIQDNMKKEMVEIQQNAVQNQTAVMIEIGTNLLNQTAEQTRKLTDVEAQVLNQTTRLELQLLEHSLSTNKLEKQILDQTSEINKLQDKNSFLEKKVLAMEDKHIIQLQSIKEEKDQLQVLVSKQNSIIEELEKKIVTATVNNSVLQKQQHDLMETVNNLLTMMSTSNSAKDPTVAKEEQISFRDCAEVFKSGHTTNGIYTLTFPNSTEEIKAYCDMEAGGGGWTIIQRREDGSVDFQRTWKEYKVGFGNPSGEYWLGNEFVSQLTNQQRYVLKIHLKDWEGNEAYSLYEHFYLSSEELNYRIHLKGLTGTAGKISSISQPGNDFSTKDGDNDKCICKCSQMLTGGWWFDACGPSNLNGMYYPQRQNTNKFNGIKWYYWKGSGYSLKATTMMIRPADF

recombinant human Ang-2 [2] = target: T1, recombinant human Ang-2; experiment: ELISA, recombinant human Ang-2 coated, detection with anti-human IgG Fc-HRP or anti-lipocalin-HRP, signal normalised (RU %)
Description: Bound agents under study were detected via an anti-human-IgG-Fc antibody or anti-lipocalin antibody as described in Example 3. The data was fit with a 1:1 binding model with EC50 value and the maximum signal as free parameters, and a slope that was fixed to unity.
The target was dissolved in PBS (5 μg/mL) and coated overnight on microtiter plates at 4° C. The plate was washed after each incubation step with 80 μL PBS-T five times. The plates were blocked with 2% BSA (w/v) in PBS for 1 h at room temperature and subsequently washed. […] Bound agents under study were detected after incubation for 1 h at room temperature with 1:1000 diluted anti-lipocalin antibody conjugated to HRP in PBS-T or 1:5000 diluted anti-human IgG Fc-HRP (#109-035-098, Jackson […]) in PBS-T. After an additional wash step, fluorogenic HRP substrate (QuantaBlu, Thermo) was added to each well and the fluorescence intensity was detected using a fluorescence microplate reader.

recombinant human Ang-2 [3] = target: T1, recombinant human Ang-2; experiment: competition cell ECL: constant human Ang-2 pre-incubated with the titrated agent, free Ang-2 captured on hTie-2 overexpressing HEK cells, detected by anti-HIS-tag antibody

Measured: binding

B1: lipocalin mutein of SEQ ID NO: 2 (designed binder)
chain: QDSTSDLIPAPPLSKVPLQQNFQDNQFHGKWYVVGQAGNYILREDKDPGKMWATIYELKEDKSYDVTEVSFGAKKCNYRIWTFVPGSQPGEFTLGGIKSDPGGTSTLVRVVSTNYNQHAMVFFKHVLQNREFFEITLYGRTKELTSELKENFIRFSKSLGLPENHIVFPVPIDQCIDG
notes: hNGAL mutein specific for Ang-2, tested in monomeric form; also called positive control lipocalin mutein; Ang-2-specific lipocalin mutein in monomeric form
binds: all assays above

B2: lipocalin mutein of SEQ ID NO: 3 (designed binder)
chain: B1 chain with Q36H, A73P, D100P
notes: as for B1
binds: all assays above

— patent publication US20180334499A1 (Pieris, published 2018)
